Test results as given in PubChem BioAssay AID1487 (National Center for Advancing Translational Sciences (NCATS), 2009).
About 25 (0.01%) of roughly 200,000 compounds were called active. The inconclusive results got no clear call from the source; some entries with a clear call stand among them for comparison. Calls come from the whole dose curve; as a rule, active = well fitted inhibition curve with a large enough effect in the signal ratio, with a control signal flat (not every such curve was filed as active); inconclusive = small, poorly fitted or top-dose-only effect, or effect the other way, or a change in a side signal; inactive = flat fitted curve, though single readings scatter; the % refers to the signal ratio. Potencies of inconclusive entries are doubtful fits and often do not repeat.

Experiment: qHTS Assay for Modulators of Lamin A Splicing
Conditions: HeLa LMNA splicing GFP/RFP minigene ratio, 48 h; ratio change, negative = inhibition: at 46.1 µM (top of the series) unless noted
Method in brief: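 Read-out is the ratio of GFP to DsRed2 object intensity, acquired by 488 nm laser-scanning cytometry on HeLa lamin A-EGFP minigene reporter cells. Compound incubation 48 hrs at 37 °C in Opti-MEM with 2% FBS; DMSO 0.5% final.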
% is set by controls: 0 for no effect and ±100 for the full control effect; potency is the fitted concentration of half-maximal effect.

Row | SMILES | ratio change, negative = inhibition | Potency
1 | O=[N+]([O-])c1ccc(NCc2ccccc2)c2nonc12 | inconclusive: 14.6% [at 46 µM] | 
2 | COc1ccc(N/N=C/c2c(O)n(-c3cccc(C)c3)c(=O)[nH]c2=O)cc1 | inactive | 
3 | Cc1cc(Br)c(NC(=O)CN2CC=C(c3ccccc3)CC2)c(Br)c1 | inconclusive: -31.3% [at 46 µM] | 
4 | S=C(S)N1CCCC1 |  | inconclusive: 0.631 µM [cytotoxic, full curve]
5 | CC[C@@H]1C(=O)OC[C@@H]1Cc1cncn1C | inconclusive: 14.9% [at 46 µM] | 
6 | N[C@@H](Cn1oc(=O)[nH]c1=O)C(=O)O | inconclusive: -11.2% | 
7 | Cc1ccc(-n2c(O)c(/C=N/c3ncc(Br)cc3Br)c(=O)[nH]c2=O)cc1 | inconclusive: -6.78% [at 9.22 µM] | 
8 | COc1c2c(c(CC=C(C)C)c3oc(=O)c(-c4ccc(O)cc4)c(O)c13)OC(C)(C)C=C2 | inconclusive: 20.5% | 
9 | [O]=[Cd] | inconclusive: 1.93% | 
10 | O=C(CCCCCn1c(=S)[nH]c2ccccc2c1=O)N1CCC2(CC1)OCCO2 | inactive | 
11 | C=C1CC2C(CC[C@]3(C)C(=O)CCC23)[C@]2(C)C=CC(=O)C=C12 (stereo not given in full) | inconclusive: 4.98% | 
12 | CCOC(=O)C(=CNc1ccc(C(O)(C(=O)OCC)C(F)(F)F)cc1C)C(=O)OCC (stereo not given) |  | inconclusive: 14.1 µM [fluorescent, single point]
13 | CN1C(=O)C(=Cc2ccc(Sc3ccccc3)o2)C(=O)N(C)C1=O | inactive | 
14 | C[N+]1(C)C2CC(OC(=O)C(CO)c3ccccc3)CC1C1OC12 (stereo not given) | inconclusive: -3.47% | 
15 | CN1C[C@H](C(=O)N[C@]2(C)O[C@@]3(O)C4CCCN4C(=O)[C@H](Cc4ccccc4)N3C2=O)C[C@@H]2c3cccc4[nH]cc(c34)C[C@H]21 (stereo not given in full) | inconclusive: 12.1% | 
16 | FC(F)=C(F)CCSc1ncn[nH]1 | inconclusive: 0.915% [at 46 µM] | 
17 | Cc1cccc2c1=NC(=O)/C(=C/c1c(O)[nH]c(=O)[nH]c1=O)C=2 | inactive | 
18 | CC(=NCCN1CCOCC1)c1c(O)n(C2CCCCC2)c(=O)[nH]c1=O | inconclusive: 9.82% | 
19 | CN(N=O)c1ccc(O)c(O)c1 | inconclusive: 6.43% | 
20 | CCCN1CCC[C@@H]2Cc3nc(N)ncc3C[C@H]21 | inconclusive: -5.14% | 
21 | CC[C@]12C=CCN3CCC4(c5cc(Br)c(OC)cc5N(C)C4[C@@](O)(C(=O)OC)[C@@H]1OC(C)=O)C32 (stereo not given in full) | inactive | 
22 | Cc1ccccc1CCNCc1ccc(Br)cc1 | inconclusive: 8.83% | 

Row | SMILES | ratio change, negative = inhibition | Potency
23 | O=C(O)CCCC[C@H]1SC[C@H]2NC(=O)N[C@@H]21 | inconclusive: -11.7% | 
24 | N#Cc1cccc(NC(=O)c2sc3nc4c(cc3c2N)N2CCC4CC2)c1 | inconclusive: -12% [at 46 µM] | 
25 | Cn1cccc1/C=C1/C(=O)NC(=O)N(Cc2ccccc2)C1=O | inactive | 
26 | CCN(CC)C(=O)/C(Cl)=C(\C)OP(=O)(OC)OC | inconclusive: 1.17% | 
27 | Cn1cnc(CCN)c1 | inactive | 
28 | CCOc1ccc(NC(=O)c2cccn(Cc3cccc(Cl)c3)c2=O)cc1 | inconclusive: -23.7% [at 46 µM] | 
29 | N#CC(=Cc1ccc(O)c(O)c1)C(N)=S | inconclusive: -69.5% | 
30 | COc1ccc(O)c(CN2CCCC(C(=O)c3ccccc3SC)C2)c1 (stereo not given) | inconclusive: -25.9% [at 46 µM] | 
31 | CC(C)N(CCC(C(N)=O)(c1ccccc1)c1ccccn1)C(C)C (stereo not given) | inconclusive: 0.0893% | 
32 | CCc1ccc(CNCCc2ccc(F)cc2)cc1 | inconclusive: 5.3% | 
33 | CN1C(=O)NC(=O)/C(=C\C=C\c2ccccc2[N+](=O)[O-])C1=O | inconclusive: -68.4% [at 46 µM] | 
34 | CC(C)n1c(/C=C/[C@H](O)C[C@H](O)CC(=O)O)c(-c2ccc(F)cc2)c2ccccc21 | inconclusive: 6.23% | 
35 | Cc1cccc(N2CCc3c2nc2ccccc2c3N)c1 | inconclusive: -6.31% | 
36 | COc1cc(C(CN)CC(=O)O)ccc1O (stereo not given) | inconclusive: 5.7% [at 46 µM] | 
37 | OC1CCCCC1N1CCC(c2ccccc2)CC1 (stereo not given) | inconclusive: -4.38% | 
38 | O=C(c1ccc2c(c1)ncn2C1CCCCC1)N1CCC2(CC1)OCCO2 | inconclusive: 17.9% [at 0.0737 µM] | 
39 | C[C@H]1O[C@H](O[C@H]2[C@H](O)[C@@H](O)[C@@H](O)[C@H](O)[C@@H]2O)[C@@H](N)C[C@@H]1NC(=N)C(=O)O | inconclusive: -31.5% | 
40 | NCCc1ccc(S(=O)(=O)F)cc1 | inconclusive: -3.64% | 
41 | O=C(c1cc(F)ccc1F)C1CCCN(Cc2ccc3nonc3c2)C1 (stereo not given) | inconclusive: 11.4% [at 46 µM] | 
42 | CCOC(=O)C1=C(N)OC2=C(C(=O)CCC2)C12C(=O)N(CC(N)=O)c1ccccc12 (stereo not given) | inactive | 
43 | Cc1ccccc1OP(N)(=O)Oc1ccccc1C | inconclusive: 6.74% [at 46 µM] | 
44 | O=C1NC(=O)N(Cc2ccco2)C(=O)/C1=C/c1ccc(-c2cccc([N+](=O)[O-])c2)o1 | inactive | 

Individual results from the list:
ratio change, negative = inhibition, O=C(c1cc(F)ccc1F)C1CCCN(Cc2ccc3nonc3c2)C1 (stereo not given) reads inconclusive: 11.4% [at 46 µM]
ratio change, negative = inhibition, CN1C(=O)C(=Cc2ccc(Sc3ccccc3)o2)C(=O)N(C)C1=O reads inactive
ratio change, negative = inhibition, O=C(O)CCCC[C@H]1SC[C@H]2NC(=O)N[C@@H]21 reads inconclusive: -11.7%
ratio change, negative = inhibition, Cc1ccccc1CCNCc1ccc(Br)cc1 reads inconclusive: 8.83%

The list continues:

Row | SMILES | ratio change, negative = inhibition | Potency
45 | Cn1cc(C(=O)N2CCC3(CC2)OCCO3)c2c3ccccc3n(C)c2c1=O | inconclusive: 7.82% | 
46 | C[C@H]1CCC/C=C/C2C[C@H](O)CC2[C@H](O)/C=C/C(=O)O1 (stereo not given in full) |  | inconclusive: 0.224 µM [falling, full curve]
47 | Cc1cc(C)[n+](C2C3CC4CC(C3)CC2C4)o1 (stereo not given) |  | inconclusive: 35.5 µM [fluorescent, single point]
48 | CCNC(=O)[C@H]1O[C@@H](n2cnc3c(N)ncnc32)[C@H](O)[C@H]1O | inconclusive: -4.56% | 
49 | O=C(Nc1ccc2c(c1)OCCO2)c1cccn(Cc2cccc(F)c2)c1=O | inconclusive: 3.35% [at 46 µM] | 
50 | C=CCN1C(=O)NC(=O)/C(=C/c2ccc(OC)c(CSc3ccccn3)c2)C1=O | inactive | 
51 | O=c1[nH]c(=O)n(Cc2ccc(F)cc2)c(O)c1C=Nc1ccc(Cl)cc1 |  | inconclusive: 35.5 µM [rising, single point]
52 | Nc1c(C(=O)OC2CCCCC2)c2nc3ccccc3nc2n1CC1CCCO1 (stereo not given) | inconclusive: 6.45% | 
53 | CCCCCn1c(N)c(C(=O)NCc2cccs2)c2nc3ccccc3nc21 |  | inconclusive: 35.5 µM [cytotoxic, single point]
54 | Nc1ccccc1C(=O)OCC(=O)N1CCc2ccccc21 | inactive | 
55 | O=c1[nH]c(=O)n(Cc2ccco2)c(O)c1C=NCCN1CCOCC1 | inactive | 
56 | O=C1NC(=O)N(CCC2=CCCCC2)C(=O)/C1=C/c1ccc(O)cc1 | inactive | 
57 | COc1ccc(C2=NCC(=S)Nc3ccc(Cl)cc32)cc1Cl | inactive | 
58 | O=C(O)CCn1cc(C=C2C(=O)NC(=O)NC2=O)c(-c2cc3ccccc3oc2=O)n1 | inconclusive: 21.7% [at 46 µM] | 
59 | Cc1c(C(=O)N2CCC3(CC2)OCCO3)oc2ccc(S(=O)(=O)N3CCCCC3)cc12 | inconclusive: 7.07% | 
60 | Nc1ccc2nonc2c1[N+](=O)[O-] | inconclusive: 8.04% [at 46 µM] | 
61 | CCCCNCC(O)c1ccc(O)cc1 (stereo not given) | inconclusive: -28.5% | 
62 | CCN1CCN(c2ccc([N+](=O)[O-])cc2C=C2C(=O)NC(=O)NC2=O)CC1 | inactive | 
63 | CCOC(=O)c1cn2nc(OP(=S)(OCC)OCC)cc2nc1C | inconclusive: 7.63% | 
64 | CN1CCN(CC(=O)Nc2ccc([N+](=O)[O-])cc2C(=O)c2ccccc2)CC1 | inconclusive: 3.32% [at 46 µM] | 
65 | CC(C)c1ccc(C2N3CCCN23)cc1 (stereo not given) | inactive | 
66 | Cc1cccc(OCC(=O)N2CCN(Cc3cc(=O)n4nc(-c5ccccc5Cl)sc4n3)CC2)c1 | inconclusive: 9.21% [at 46 µM] | 

Row | SMILES | ratio change, negative = inhibition | Potency
67 | CCOCCCn1c(N)c(C(=O)Nc2sc3c(c2C(=O)OC)CCCC3)c2nc3ccccc3nc21 |  | inconclusive: 35.5 µM [cytotoxic, single point]
68 | COC(=O)C(c1ccccc1)C1CCCCN1 (stereo not given) |  | inconclusive: 0.0028 µM [inhibitor, full curve, poor fit]
69 | C=C(c1ccccc1)P(=O)(O)O | inactive | 
70 | CCOC(=O)C1(CCOc2ccccc2)CCN(C2Cc3ccccc3C2)CC1 | inconclusive: -7.53% [at 46 µM] | 
71 | O=C(NCc1ccc(C(=O)N2CCC3(CC2)OCCO3)cc1)c1ccc2c(c1)OCO2 | inactive | 
72 | OC1/C(=C/c2ccccc2C(F)(F)F)N2CCC1CC2 (stereo not given) | inconclusive: -21.2% [at 46 µM] | 
73 | O=c1c2ccccc2nc(-c2ccco2)n1-c1ccncc1 | inconclusive: 9.85% | 
74 | Cc1ccccc1-c1nn2c(=O)cc(CN3CCN(C(=O)COc4ccccc4Cl)CC3)nc2s1 | inconclusive: -24.3% [at 46 µM] | 
75 | Cc1c(C=C2C(=O)NC(=O)NC2=O)c(=O)n(-c2ccccc2)n1C | inactive | 
76 | NC(N)=N/N=C/c1c(Cl)cccc1Cl | inactive | 
77 | CC(=O)N(C1=NCCCS1)c1ccccc1Cl | inconclusive: 10.3% [at 46 µM] | 
78 | CNC[C@H](O)c1ccc(O)c(OC)c1 | inactive | 
79 | Cc1cc(C)cc(-n2c(C)cc(/C=C3\C(=O)NC(=O)N(C)C3=O)c2C)c1 | inactive | 
80 | CN1C(=O)/C(=C/c2ccc(N3CCCCCC3)o2)C(=O)NC1=S | inactive | 
81 | c1ccc(CC(NCc2ccco2)c2ccccc2)cc1 (stereo not given) | inactive: 7.4% [at 9.22 µM] | 
82 | Cn1nc(-c2ccc(OCC(=O)N3CCN(Cc4ccccc4)CC3)cc2)c2ccccc2c1=O |  | inconclusive: 7.08 µM [fluorescent, partial curve]
83 | CCN1C(=O)C(=Cc2cc(C)n(C3CC3)c2C)C(=O)N(CC)C1=S | inactive | 
84 | Cc1nc2ccccc2c(=O)n1-c1ccccc1[N+](=O)[O-] | inconclusive: 18.9% [at 46 µM] | 
85 | CC[C@H]1CN2CCc3cc(OC)c(OC)cc3[C@@H]2C[C@@H]1C[C@H]1NCCc2cc(OC)c(OC)cc21 | inconclusive: 122% [at 46 µM] | 
